One molecule from publication PMC6618013 can be followed below.

This test has as its target myeloid differentiation protein 2 (MD2) (rat (endogenous in rat peritoneal macrophages)). As to the kind of experiment: co-IP; macrophages treated with LPS (100 ng/ml) and 3 µg/ml gCTRP9, MD2‐neutralizing antibody (100 ng/ml) or vehicle for 15 min; cell extracts precipitated with anti‐MD2 (blot for TLR4) or anti‐TLR4 (blot for MyD88), protein A magnetic beads, 4°C overnight.

No constants are given. Whether binding was seen depends on the method and setting. Binding seen in cells or lysates may run through a third protein. Binding calls can cover weak binding; strength is not graded here.

B1: toll‐like receptor 4 (TLR4) (receptor, UniProt Q9QX05 26-835)
chain: NPCIEVLPNITYQCMDQNLSKIPHDIPYSTKNLDLSFNPLKILRSYSFTNFSQLQWLDLSRCEIETIEDKAWHGLNQLSTLVLTGNPIKSFSPGSFSGLTNLENLVAVETKMTSLEGFHIGQLISLKKLNVAHNLIHSFKLPEYFSNLTNLEHVDLSYNYIQTISVKDLQFLRENPQVNLSLDLSLNPIDSIQAQAFQGIRLHELTLRSNFNSSNVLKMCLQNMTGLHVHRLILGEFKNERNLESFDRSVMEGLCNVSIDEFRLTYINHFSDDIYNLNCLANISAMSFTGVHIKHIADVPRHFKWQSLSIIRCHLKPFPKLSLPFLKSWTLTTNREDISFGQLALPSLRYLDLSRNAMSFRGCCSYSDFGTNNLKYLDLSFNGVILMSANFMGLEELEYLDFQHSTLKKVTEFSVFLSLEKLLYLDISYTNTKIDFDGIFLGLISLNTLKMAGNSFKDNTLSNVFTNTTNLTFLDLSKCQLEQISRGVFDTLYRLQLLNMSHNNLLFLDPSHYKQLYSLRTLDCSFNRIETSKGILQHFPKSLAVFNLTNNSVACICEYQNFLQWVKDQKMFLVNVEQMKCASPIDMKASLVLDFTNSTCYIYKTIISVSVVSVLVVATVAFLIYHFYFHLILIAGCKKYSRGESIYDAFVIYSSQNEDWVRNELVKNLEEGVPRFQLCLHYRDFIPGVAIAANIIQEGFHKSRKVIVVVSRHFIQSRWCIFEYEIAQTWQFLSSRSGIIFIVLEKVEKSLLRQQVELYRLLSRNTYLEWEDNALGRHIFWRRLKKALLDGKALNPDETSEEEQEATTLT
Turning to B1, the binding result is “binds”.
